Source: doi:10.1101/2023.07.25.550466
These are yes or no findings as the source states them, for the method shown. Binding seen in cells or lysates may run through a third protein. Some entries that bind do so weakly or less than the wild type.

Protein sequences, listed by entry. Tags and fused reporters are not part of them.
UniProt Q91ZW3: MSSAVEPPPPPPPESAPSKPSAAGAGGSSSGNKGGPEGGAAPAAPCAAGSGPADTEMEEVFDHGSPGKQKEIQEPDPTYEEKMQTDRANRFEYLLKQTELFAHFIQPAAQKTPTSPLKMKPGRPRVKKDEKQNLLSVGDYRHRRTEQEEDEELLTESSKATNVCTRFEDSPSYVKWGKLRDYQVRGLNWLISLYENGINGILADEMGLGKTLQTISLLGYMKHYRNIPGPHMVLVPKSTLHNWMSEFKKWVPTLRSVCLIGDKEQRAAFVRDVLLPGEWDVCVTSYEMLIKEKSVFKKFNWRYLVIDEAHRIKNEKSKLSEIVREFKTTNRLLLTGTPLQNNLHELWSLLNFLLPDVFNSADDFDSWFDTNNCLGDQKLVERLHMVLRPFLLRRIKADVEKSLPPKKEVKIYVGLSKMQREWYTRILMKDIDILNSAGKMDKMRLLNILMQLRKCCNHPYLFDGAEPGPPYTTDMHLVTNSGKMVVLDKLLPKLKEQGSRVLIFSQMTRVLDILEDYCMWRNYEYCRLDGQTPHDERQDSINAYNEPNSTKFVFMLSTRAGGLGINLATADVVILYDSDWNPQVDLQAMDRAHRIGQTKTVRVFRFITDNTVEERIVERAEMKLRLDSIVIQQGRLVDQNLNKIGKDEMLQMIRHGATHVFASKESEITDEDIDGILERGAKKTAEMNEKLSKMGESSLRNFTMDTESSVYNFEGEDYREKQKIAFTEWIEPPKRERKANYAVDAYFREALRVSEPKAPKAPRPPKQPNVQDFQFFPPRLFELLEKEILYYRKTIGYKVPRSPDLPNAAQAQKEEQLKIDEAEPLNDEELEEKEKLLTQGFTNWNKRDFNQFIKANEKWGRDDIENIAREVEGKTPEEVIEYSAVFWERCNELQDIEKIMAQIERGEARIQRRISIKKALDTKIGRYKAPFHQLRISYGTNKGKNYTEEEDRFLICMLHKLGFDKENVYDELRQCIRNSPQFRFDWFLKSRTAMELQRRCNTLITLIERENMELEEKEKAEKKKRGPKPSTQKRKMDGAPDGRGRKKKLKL
UniProt O88379: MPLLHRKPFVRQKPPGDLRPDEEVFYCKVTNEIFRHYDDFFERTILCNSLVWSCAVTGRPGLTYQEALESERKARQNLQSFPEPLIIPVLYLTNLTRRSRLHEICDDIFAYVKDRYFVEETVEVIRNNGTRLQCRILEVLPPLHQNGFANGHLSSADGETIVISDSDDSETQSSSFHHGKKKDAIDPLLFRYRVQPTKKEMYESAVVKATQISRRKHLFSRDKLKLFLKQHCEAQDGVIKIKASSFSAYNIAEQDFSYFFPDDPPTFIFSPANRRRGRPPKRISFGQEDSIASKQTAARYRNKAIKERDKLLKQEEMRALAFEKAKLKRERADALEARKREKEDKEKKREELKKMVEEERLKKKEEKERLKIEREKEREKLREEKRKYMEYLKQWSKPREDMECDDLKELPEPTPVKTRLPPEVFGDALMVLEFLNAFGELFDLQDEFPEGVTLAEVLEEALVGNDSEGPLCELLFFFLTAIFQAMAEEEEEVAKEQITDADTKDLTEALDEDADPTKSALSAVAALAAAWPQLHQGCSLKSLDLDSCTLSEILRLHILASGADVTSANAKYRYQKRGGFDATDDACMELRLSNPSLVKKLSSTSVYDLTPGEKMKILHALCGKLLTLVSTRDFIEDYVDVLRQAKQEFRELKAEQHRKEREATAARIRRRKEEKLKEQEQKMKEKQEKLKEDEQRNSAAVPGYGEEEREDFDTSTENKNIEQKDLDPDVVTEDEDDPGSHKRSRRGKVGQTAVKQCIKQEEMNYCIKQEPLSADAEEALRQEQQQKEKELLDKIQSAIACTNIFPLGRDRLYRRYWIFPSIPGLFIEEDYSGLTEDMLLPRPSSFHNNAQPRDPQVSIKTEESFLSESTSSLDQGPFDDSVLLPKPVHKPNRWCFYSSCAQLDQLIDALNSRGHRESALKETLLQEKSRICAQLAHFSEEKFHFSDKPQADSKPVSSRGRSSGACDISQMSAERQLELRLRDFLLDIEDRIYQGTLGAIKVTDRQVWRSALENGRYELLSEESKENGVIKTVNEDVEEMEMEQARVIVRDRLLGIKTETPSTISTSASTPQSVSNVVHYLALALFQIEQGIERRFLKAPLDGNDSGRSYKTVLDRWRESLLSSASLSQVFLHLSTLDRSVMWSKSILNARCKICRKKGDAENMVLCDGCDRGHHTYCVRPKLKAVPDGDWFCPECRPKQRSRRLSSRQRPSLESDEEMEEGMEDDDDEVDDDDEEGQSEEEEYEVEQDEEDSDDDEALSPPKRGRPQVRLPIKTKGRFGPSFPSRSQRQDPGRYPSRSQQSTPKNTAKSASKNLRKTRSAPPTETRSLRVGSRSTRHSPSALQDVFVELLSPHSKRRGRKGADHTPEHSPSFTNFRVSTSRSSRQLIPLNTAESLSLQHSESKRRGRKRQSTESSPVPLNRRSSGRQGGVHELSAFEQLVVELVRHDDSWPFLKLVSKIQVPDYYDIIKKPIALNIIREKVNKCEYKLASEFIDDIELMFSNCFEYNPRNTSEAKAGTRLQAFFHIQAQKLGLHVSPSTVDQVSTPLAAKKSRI
UniProt Q91YE5: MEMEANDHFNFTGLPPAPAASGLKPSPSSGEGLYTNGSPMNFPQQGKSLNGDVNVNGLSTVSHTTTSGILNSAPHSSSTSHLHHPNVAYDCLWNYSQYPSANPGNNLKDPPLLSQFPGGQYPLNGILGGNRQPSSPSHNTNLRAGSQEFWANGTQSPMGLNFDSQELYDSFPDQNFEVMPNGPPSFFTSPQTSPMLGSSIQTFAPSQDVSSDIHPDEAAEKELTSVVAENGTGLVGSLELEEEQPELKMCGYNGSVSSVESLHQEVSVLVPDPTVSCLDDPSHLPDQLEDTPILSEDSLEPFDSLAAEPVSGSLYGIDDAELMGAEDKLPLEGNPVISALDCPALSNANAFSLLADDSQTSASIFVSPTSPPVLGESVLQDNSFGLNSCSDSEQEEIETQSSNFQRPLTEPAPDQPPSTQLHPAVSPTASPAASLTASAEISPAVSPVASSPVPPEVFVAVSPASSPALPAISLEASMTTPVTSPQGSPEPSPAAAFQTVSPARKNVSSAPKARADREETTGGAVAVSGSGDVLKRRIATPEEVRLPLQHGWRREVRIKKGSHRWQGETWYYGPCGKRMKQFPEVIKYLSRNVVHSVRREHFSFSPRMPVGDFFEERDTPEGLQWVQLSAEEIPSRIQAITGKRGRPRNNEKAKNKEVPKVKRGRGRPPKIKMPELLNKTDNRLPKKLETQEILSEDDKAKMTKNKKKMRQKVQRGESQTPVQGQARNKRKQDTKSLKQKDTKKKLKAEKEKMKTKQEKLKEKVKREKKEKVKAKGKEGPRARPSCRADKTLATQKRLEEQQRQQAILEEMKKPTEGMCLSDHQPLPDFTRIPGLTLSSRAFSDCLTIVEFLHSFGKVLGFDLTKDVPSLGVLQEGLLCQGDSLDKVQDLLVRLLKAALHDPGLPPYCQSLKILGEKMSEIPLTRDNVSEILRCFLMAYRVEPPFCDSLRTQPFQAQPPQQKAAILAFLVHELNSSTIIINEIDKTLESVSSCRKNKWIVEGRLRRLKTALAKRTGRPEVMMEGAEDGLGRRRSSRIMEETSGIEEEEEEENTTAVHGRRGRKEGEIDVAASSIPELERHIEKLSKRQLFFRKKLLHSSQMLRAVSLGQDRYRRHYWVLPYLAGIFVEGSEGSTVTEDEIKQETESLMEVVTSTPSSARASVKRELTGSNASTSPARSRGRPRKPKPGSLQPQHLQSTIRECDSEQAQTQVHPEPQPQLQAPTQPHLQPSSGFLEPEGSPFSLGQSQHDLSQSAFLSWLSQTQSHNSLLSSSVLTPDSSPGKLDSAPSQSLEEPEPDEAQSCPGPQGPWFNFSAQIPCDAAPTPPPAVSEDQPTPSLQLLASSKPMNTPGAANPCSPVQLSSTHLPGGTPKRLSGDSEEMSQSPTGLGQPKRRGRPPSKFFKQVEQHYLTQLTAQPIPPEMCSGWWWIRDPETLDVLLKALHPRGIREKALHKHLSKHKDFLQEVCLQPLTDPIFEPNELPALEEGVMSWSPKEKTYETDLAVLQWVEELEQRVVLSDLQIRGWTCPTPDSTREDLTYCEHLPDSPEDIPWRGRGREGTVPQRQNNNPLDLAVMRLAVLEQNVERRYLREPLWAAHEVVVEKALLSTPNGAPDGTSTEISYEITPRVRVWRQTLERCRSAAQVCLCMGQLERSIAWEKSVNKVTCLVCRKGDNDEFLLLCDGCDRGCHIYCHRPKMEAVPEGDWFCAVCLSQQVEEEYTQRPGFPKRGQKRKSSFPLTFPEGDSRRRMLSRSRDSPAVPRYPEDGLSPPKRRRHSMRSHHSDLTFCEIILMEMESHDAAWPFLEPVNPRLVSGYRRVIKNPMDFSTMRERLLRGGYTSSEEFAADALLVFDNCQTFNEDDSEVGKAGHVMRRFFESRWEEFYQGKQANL
UniProt E9Q2Z1: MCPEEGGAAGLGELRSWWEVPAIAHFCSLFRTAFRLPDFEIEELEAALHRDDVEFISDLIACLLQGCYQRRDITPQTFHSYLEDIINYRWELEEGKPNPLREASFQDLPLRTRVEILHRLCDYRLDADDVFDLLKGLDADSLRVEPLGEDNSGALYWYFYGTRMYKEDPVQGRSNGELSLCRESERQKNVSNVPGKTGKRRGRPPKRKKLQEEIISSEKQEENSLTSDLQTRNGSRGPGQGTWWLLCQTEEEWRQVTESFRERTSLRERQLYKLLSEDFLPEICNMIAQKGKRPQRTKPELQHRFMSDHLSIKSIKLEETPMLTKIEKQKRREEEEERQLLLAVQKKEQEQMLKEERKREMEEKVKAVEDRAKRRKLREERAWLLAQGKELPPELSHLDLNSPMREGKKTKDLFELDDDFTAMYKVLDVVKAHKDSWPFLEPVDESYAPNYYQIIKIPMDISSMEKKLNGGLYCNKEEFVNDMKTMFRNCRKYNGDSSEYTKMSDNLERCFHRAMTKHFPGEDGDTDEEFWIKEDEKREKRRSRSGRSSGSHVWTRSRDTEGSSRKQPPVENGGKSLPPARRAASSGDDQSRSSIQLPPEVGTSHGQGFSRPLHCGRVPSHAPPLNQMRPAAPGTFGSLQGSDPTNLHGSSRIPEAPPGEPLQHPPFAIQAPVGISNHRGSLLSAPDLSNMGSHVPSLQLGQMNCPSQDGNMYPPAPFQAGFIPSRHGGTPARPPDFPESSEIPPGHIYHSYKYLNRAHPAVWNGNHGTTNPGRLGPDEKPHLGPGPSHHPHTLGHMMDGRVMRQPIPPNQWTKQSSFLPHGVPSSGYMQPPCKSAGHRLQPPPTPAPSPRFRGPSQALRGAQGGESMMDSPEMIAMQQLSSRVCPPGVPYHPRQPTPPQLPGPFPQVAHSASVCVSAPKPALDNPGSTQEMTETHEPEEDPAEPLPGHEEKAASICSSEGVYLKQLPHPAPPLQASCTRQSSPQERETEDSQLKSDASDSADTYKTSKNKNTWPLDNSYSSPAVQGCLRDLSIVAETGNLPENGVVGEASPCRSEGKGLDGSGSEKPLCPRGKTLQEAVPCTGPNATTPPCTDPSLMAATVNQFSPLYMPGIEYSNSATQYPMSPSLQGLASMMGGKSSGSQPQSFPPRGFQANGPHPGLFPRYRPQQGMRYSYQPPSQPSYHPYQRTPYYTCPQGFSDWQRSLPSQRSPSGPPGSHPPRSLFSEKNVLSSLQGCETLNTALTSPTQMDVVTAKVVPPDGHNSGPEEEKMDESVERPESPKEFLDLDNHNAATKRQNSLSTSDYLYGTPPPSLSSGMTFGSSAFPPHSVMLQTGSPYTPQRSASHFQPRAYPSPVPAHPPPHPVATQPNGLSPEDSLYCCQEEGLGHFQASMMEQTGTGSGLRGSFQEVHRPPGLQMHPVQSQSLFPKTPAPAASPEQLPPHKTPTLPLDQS

B1: WSTF (Baz1b) (protein, UniProt Q9Z277 1-1479)
chain: MAPLLGRKPFPLVKPLPGEEPLFTIPHTQEAFRTREEYEARLERYSERIWTCKSTGSSQLTHKEAWEEEQEVAELLKEEFPNWYEKLVLEMVHHNTASLEKLVDSAWLEIMTKYAVGEECDFEVGKEKMLKVKIVKIHPLEKVDEEAVEKKSDGACDSPSSDKENSSQMAQDLQKKETVVKEDEGRRESINDRARRSPRKLPTSLKKGERKWAPPKFLPHKYDVKLQNEDKIISNVPADSLIRTERPPNKEILRYFIRHNALRAGTGENAPWVVEDELVKKYSLPSKFSDFLLDPYKYMTLNPSTKRRNTGSPDRKPSKKPKRDSSSLSSPLNPKLWCHVHLEKSLNGPPLKVKNSKNSKSPEEHLEGVMKIMSPNNNKLHSFHIPKKGPAAKKPGKHSDKPLKAKGRGKGILNGQKSTGNSKSPSKCVKTPKTKMKQMTLLDMAKGTQKMTRTPRSSGGVPRSSGKPHKHLPPAALHLIAYYKENKDKEDKKSALSCVISKTARLLSNEDRARLPEELRALVQKRYELLEHKKRWASMSEEQRKEYLKKKRQELKERLREKAKERREREMLERLEKQKRFEDQELGGRNLPAFRLVDTPEGLPNTLFGDVALVVEFLSCYSGLLLPDAQYPITAVSLMEALSADKGGFLYLNRVLVILLQTLLQDEIAEDYGELGMKLSEIPLTLHSVSELVRLCLRRCDVQEDSEGSETDDNKDSTPFEDNEVQDEFLEKLETSEFFELTSEEKLRILTALCHRILMTYSVQDHMETRQQVSAELWKERLAVLKEENDKKRAEKQKRKEMEARNKENGKEENVLGKVDRKKEIVKIEQQVEVEADDMISAVKSRRLLSMQAKRKREIQERETKVRLEREAEEERMRKHKAAAEKAFQEGIAKAKLVLRRTPIGTDRNHNRYWLFSNEVPGLFIEKGWVHNSIDYRFKHHRKDHSNLPDDDYCPRSKKANLGKNASVNAHHGPALEAVETTVPKQGQNLWFLCDSQKELDELLSCLHPQGIRESQLKERLEKRYQEITHSIYLARKPNLGLKSCDGNQELLNFLRSDLIEVATRLQKGGLGYMEGTSEFEARVISLEKLKDFGECVIALQASVIKKFLQGFMAPKQKKRKLQSEDSTKSEEVDEEKKMVEEAKVASALEKWKTAIREAQTFSRMHVLLGMLDACIKWDMSAENARCKVCRKKGEDDKLILCDECNKAFHLFCLRPALYEVPDGEWQCPACQPPTARRNSRGRNYTEESTSEGSEGDESGEEEEEEEEEEEEEEDYEVAGLRLRPRKTIRGKQSVIPAARPGRPPGKKSHPARRSRPKDDPEVDDLVLQTKRISRRQSLELQKCEDILHKLVKYRFSWPFREPVTRDEAEDYYDVIEHPMDFQTIQNKCSCGNYRSVQEFLTDMKQVFANAELYNCRGSHVLSCMEKTEQCLLALLQKHLPGHPYVRRKRRKFPDRLADDEGDSDSESVGQSRGRRQKK

What follows are molecules tested against SNF2H (Smarca5) (mouse (endogenous in mESCs)) (UniProt Q91ZW3) (assay: co-IP).

Row | binding | Molecule
1 | binds | ACF1 (Baz1a) (from UniProt O88379 1-1555)
2 | binds | BAZ2A/TIP5 (from UniProt Q91YE5 1-1889)
3 | binds | CECR2 (from UniProt E9Q2Z1 1-1453)
4 | binds | B1
